These are yes or no findings as the source states them, for the method shown. Binding seen in cells or lysates may run through a third protein. A result given as binding can be weak or reduced; the word gives no strength. Tags and fused reporters may be left off the sequences shown.

Amino acid sequences for entries named in this document (tags omitted). A change or cut given only in a name is not applied to a line headed by its entry.
UniProt Q7KUD2: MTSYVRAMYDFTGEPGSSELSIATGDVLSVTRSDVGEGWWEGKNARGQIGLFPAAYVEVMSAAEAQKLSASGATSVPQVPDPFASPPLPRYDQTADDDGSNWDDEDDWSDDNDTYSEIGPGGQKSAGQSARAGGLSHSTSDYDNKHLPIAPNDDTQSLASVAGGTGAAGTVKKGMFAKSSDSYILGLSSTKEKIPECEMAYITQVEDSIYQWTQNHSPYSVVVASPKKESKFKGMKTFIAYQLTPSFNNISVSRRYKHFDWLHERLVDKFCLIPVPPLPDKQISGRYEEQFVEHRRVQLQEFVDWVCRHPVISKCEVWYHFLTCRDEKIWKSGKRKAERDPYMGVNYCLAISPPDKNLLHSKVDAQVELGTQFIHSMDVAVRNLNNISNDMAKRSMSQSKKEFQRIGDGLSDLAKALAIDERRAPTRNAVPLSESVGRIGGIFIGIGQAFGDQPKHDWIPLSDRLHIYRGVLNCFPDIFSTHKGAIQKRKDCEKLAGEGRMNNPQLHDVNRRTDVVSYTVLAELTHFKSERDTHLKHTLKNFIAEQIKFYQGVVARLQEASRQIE

Here are results for 3 molecules from article PMC4732300.

Holding throughout (assay): co-IP; Drosophila S2 cells co-transfected; lysis in 50 mM Tris-HCl pH 7.4, 150 mM NaCl, 1 mM EDTA, 1% Triton X-100; IP with anti-FLAG and, reciprocally, anti-HA, overnight at 4°C, Protein A/G agarose; western blot
Background: A western blot detects proteins with antibodies after separation by electrophoresis.

Assay [1] has as its target T1, FLAG–Nwk-F-BAR (amino acid residues 1–290) (Drosophila) (UniProt X2JAU8).
T1 sequence: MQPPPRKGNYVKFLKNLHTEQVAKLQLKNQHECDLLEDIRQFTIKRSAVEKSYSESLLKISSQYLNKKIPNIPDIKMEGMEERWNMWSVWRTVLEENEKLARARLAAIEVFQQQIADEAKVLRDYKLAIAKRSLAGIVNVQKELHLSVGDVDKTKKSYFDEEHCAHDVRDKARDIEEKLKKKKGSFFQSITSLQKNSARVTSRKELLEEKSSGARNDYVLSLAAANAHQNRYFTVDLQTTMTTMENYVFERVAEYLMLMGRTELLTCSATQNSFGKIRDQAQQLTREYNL

For assay [2], the target named is T2, FLAG–Nwk (full-length Drosophila Nervous wreck) (Drosophila) (UniProt X2JAU8).
T2 sequence: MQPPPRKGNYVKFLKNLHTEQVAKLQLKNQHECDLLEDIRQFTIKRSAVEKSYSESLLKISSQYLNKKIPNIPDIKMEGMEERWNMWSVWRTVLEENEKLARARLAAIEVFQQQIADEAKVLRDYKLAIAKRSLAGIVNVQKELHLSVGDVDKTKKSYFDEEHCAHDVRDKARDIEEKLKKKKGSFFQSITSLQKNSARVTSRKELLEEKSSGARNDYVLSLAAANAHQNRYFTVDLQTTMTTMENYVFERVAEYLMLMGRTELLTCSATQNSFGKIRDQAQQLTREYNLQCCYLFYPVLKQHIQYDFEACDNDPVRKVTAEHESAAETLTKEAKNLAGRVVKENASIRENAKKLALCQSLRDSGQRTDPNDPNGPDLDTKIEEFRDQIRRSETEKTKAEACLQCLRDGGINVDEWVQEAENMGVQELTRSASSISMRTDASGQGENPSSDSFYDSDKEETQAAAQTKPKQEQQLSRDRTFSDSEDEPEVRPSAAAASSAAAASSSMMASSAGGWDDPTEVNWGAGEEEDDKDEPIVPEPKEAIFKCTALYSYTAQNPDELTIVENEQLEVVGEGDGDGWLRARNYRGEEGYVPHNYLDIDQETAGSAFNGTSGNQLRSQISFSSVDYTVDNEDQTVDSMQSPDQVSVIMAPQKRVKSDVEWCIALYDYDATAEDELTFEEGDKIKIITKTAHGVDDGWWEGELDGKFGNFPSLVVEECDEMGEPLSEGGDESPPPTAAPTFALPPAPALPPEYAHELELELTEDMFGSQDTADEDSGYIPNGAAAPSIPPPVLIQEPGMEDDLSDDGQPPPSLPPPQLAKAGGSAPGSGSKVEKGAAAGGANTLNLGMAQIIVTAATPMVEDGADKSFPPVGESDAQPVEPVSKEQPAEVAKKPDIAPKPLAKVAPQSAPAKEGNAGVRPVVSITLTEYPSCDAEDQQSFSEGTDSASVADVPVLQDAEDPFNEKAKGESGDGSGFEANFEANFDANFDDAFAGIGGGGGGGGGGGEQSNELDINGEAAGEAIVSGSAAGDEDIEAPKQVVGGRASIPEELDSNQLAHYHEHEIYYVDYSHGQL

In a further assay the target is HA–SH3PX1 (Drosophila) (UniProt Q7KUD2).

As for HA–SH3PX1 (from UniProt Q7KUD2), the binding result in assay [1] and in assay [2] was “binds” throughout.

B1: FLAG–Nwk-F-BAR (amino acid residues 1–290) (domain or fragment, UniProt X2JAU8 1-290)
chain: MQPPPRKGNYVKFLKNLHTEQVAKLQLKNQHECDLLEDIRQFTIKRSAVEKSYSESLLKISSQYLNKKIPNIPDIKMEGMEERWNMWSVWRTVLEENEKLARARLAAIEVFQQQIADEAKVLRDYKLAIAKRSLAGIVNVQKELHLSVGDVDKTKKSYFDEEHCAHDVRDKARDIEEKLKKKKGSFFQSITSLQKNSARVTSRKELLEEKSSGARNDYVLSLAAANAHQNRYFTVDLQTTMTTMENYVFERVAEYLMLMGRTELLTCSATQNSFGKIRDQAQQLTREYNL
On to B1, for which, in the assay with HA–SH3PX1 (Drosophila), the binding entry is recorded as “binds”.

B2: FLAG–Nwk (full-length Drosophila Nervous wreck) (protein, UniProt X2JAU8 1-1075)
chain: MQPPPRKGNYVKFLKNLHTEQVAKLQLKNQHECDLLEDIRQFTIKRSAVEKSYSESLLKISSQYLNKKIPNIPDIKMEGMEERWNMWSVWRTVLEENEKLARARLAAIEVFQQQIADEAKVLRDYKLAIAKRSLAGIVNVQKELHLSVGDVDKTKKSYFDEEHCAHDVRDKARDIEEKLKKKKGSFFQSITSLQKNSARVTSRKELLEEKSSGARNDYVLSLAAANAHQNRYFTVDLQTTMTTMENYVFERVAEYLMLMGRTELLTCSATQNSFGKIRDQAQQLTREYNLQCCYLFYPVLKQHIQYDFEACDNDPVRKVTAEHESAAETLTKEAKNLAGRVVKENASIRENAKKLALCQSLRDSGQRTDPNDPNGPDLDTKIEEFRDQIRRSETEKTKAEACLQCLRDGGINVDEWVQEAENMGVQELTRSASSISMRTDASGQGENPSSDSFYDSDKEETQAAAQTKPKQEQQLSRDRTFSDSEDEPEVRPSAAAASSAAAASSSMMASSAGGWDDPTEVNWGAGEEEDDKDEPIVPEPKEAIFKCTALYSYTAQNPDELTIVENEQLEVVGEGDGDGWLRARNYRGEEGYVPHNYLDIDQETAGSAFNGTSGNQLRSQISFSSVDYTVDNEDQTVDSMQSPDQVSVIMAPQKRVKSDVEWCIALYDYDATAEDELTFEEGDKIKIITKTAHGVDDGWWEGELDGKFGNFPSLVVEECDEMGEPLSEGGDESPPPTAAPTFALPPAPALPPEYAHELELELTEDMFGSQDTADEDSGYIPNGAAAPSIPPPVLIQEPGMEDDLSDDGQPPPSLPPPQLAKAGGSAPGSGSKVEKGAAAGGANTLNLGMAQIIVTAATPMVEDGADKSFPPVGESDAQPVEPVSKEQPAEVAKKPDIAPKPLAKVAPQSAPAKEGNAGVRPVVSITLTEYPSCDAEDQQSFSEGTDSASVADVPVLQDAEDPFNEKAKGESGDGSGFEANFEANFDANFDDAFAGIGGGGGGGGGGGEQSNELDINGEAAGEAIVSGSAAGDEDIEAPKQVVGGRASIPEELDSNQLAHYHEHEIYYVDYSHGQL
In the case of B2, the binding result in the assay with HA–SH3PX1 (Drosophila) was “binds”.
